Assay results taken from publication PMC7562919.

T1: DN-SUSA2-FLAG (Arabidopsis thaliana) (UniProt Q9FKT0)
T1 sequence: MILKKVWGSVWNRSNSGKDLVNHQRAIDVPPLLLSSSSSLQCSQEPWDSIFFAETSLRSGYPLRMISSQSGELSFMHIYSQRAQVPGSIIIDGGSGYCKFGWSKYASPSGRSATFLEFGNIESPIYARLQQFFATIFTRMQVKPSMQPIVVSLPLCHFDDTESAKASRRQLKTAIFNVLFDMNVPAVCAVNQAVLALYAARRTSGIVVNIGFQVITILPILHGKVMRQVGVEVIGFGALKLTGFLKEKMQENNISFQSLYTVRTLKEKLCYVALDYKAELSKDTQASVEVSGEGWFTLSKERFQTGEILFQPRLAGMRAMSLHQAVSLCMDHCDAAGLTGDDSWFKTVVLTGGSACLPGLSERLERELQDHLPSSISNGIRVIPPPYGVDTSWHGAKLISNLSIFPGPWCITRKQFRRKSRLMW

B1: DN-SUSA2-Turbo-HA (protein, UniProt Q9FKT0)
chain: T1 sequence
B2: CHS1-Turbo-HA (protein, UniProt F4I902 1-420)
chain: MSTSYSFLLAGRELDVFLSFSGKIALDVDFGYDLSRNGIKAFKSESWKESSFKPIDLRTLEALTESKVAVVMTSDEEVSSVGFLEELIVIIEFQEKRSLTVIPVFLTKHPLDVEKVSQIFPERAKIWRTAIAKLDNIAAQYSFSRNLAVMHGTHRIKQIADDIRLMFLSSASSDFKGLAGMDRHMKALYALLALESDEKVRTIGIWGSSGVGKTTLARYTYAEISVKFQAHVFLENVENMKEMLLPSENFEGEDLRSVNHEMNEMAEAKQKHRKVLLIADGVNNIEQGKWIAENANWFAPGSRVILITQEKSLLVQSGVNHVYEVGSLRYDEALQLFSRFAFKQPYPSPDFERLSVRAVQLAGFLPVTIRLFGSFLTGRDKEEWEATLLKLNAKQGKDIKEVWKIMEALEDKDIVEASQR

What was measured:
[1] = target: HA-FLAG-SOC3 (Arabidopsis thaliana) (UniProt F4I901); experiment: proximity labelling; TurboID fusion co-expressed with the FLAG-tagged partner in N. benthamiana leaves, 48 h; FLAG immunoprecipitation, biotinylated proteins detected with Streptavidin-HRP on western blot
[2] = target: T1, DN-SUSA2-FLAG (Arabidopsis thaliana); experiment: as above

Row | Binder | binding [1] | binding [2]
1 | B1 | binds | 
2 | B2 |  | binds

Results are given in words; binding and its absence hold for the method and conditions named. Binding seen in cells or lysates may run through a third protein. Here binding means that the protein was enriched with, or labelled near, the bait; the list need not be complete. Sequences can lack the tags named with a protein.
